PubChem BioAssay AID1259424 | University of Nebraska Medical Center – 2018

Test: 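Seek colon cancer survival genes behaving like KSR1, using a six-gene signature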 (primary screen)
Cell system: human HCT116 colon cancer cells
Reagents: siRNA pool against human genes, 50 nM
Detection: 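Log2 levels of six mRNAs (branched-DNA multiplex), adjusted by two reference genes and the non-targeting median, then scored against the average KSR1 knockdown pattern as Pearson r and euclidean distance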
Scale: mean correlation with KSR1 profile: higher = expression change more like KSR1 knockdown
Shown is a random part of about 14,000 reagents tested. 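Higher correlation or smaller distance means closer resemblance to KSR1 loss; control wells, including KSR1 knockdowns, recur on many plates.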 Not all columns of the deposit are shown. Not given: the time to read-out.

Knock-down of SRSF3 came out at: mean correlation with KSR1 profile -0.346.
Silencing of TPP1 gave: mean correlation with KSR1 profile -0.906.
Silencing of CCL25 resulted in: mean correlation with KSR1 profile 0.545.
Depletion of WDR26 came out at: mean correlation with KSR1 profile -0.367.
GRM3 showed mean correlation with KSR1 profile 0.728.
With knock-down of ZMYM3, the screen gave mean correlation with KSR1 profile -0.0571.
After knock-down of TRPM8 the results were mean correlation with KSR1 profile 0.152.
ATAD2 scored mean correlation with KSR1 profile 0.00186.
Knock-down of KIF1A gave: mean correlation with KSR1 profile 0.0822.

Records listed so far whose target name begins with T or t:
TPP1 — mean correlation with KSR1 profile = -0.906
TRPM8 — mean correlation with KSR1 profile = 0.152

Next results follow.
CLC scored mean correlation with KSR1 profile 0.0941.
For CDKN2C, the values are mean correlation with KSR1 profile 0.519.
Against KRT75, the entry reads mean correlation with KSR1 profile 0.737.
IGSF6 gave mean correlation with KSR1 profile -0.0221.
Silencing of BNIP3 came out at: mean correlation with KSR1 profile 0.323.
Against JADE3 the deposit lists mean correlation with KSR1 profile -0.117.
Against DMRTB1 the deposit lists mean correlation with KSR1 profile -0.048.
Depletion of MAP4K4 came out at: mean correlation with KSR1 profile 0.832.
For AFF1 the deposit lists mean correlation with KSR1 profile 0.337.
After knock-down of KCMF1, the record shows mean correlation with KSR1 profile -0.127.
